This is an account of results in PMC4849146.

The chains behind the UniProt entries cited, without tags or fusion partners.
UniProt Q9Y572: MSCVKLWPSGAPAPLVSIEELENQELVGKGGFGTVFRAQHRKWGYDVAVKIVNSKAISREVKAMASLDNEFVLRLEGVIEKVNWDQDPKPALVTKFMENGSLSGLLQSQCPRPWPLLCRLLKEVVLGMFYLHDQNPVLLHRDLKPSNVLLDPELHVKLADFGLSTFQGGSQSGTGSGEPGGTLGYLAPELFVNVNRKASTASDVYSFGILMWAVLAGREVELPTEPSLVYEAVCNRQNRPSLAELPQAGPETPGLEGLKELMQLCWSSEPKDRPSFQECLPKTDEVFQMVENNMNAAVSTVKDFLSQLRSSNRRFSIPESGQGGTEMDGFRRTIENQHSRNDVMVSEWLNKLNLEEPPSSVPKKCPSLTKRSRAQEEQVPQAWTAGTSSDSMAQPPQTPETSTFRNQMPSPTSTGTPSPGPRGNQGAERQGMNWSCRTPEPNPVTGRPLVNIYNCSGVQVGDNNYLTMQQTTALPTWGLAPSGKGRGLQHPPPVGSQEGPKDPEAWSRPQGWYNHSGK
UniProt Q13546: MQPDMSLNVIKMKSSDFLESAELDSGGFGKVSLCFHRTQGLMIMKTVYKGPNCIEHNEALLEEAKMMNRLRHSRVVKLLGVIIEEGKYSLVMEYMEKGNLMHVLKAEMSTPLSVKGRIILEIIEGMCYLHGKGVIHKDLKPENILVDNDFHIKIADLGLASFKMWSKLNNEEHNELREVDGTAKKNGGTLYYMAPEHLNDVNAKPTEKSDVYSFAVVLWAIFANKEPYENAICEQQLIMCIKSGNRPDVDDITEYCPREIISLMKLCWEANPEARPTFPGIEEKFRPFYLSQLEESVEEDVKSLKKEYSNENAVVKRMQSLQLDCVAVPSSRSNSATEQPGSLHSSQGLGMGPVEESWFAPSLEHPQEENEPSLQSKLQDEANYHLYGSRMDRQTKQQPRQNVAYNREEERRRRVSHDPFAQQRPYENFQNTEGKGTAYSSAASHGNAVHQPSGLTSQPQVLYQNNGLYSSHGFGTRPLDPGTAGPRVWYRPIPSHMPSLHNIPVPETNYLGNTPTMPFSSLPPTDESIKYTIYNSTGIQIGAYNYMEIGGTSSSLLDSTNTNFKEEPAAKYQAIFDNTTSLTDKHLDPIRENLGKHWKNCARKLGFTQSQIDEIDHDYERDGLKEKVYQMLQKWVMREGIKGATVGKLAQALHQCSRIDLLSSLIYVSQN

Results are given in words; binding and its absence hold for the method and conditions named. In cells and extracts the contact can be indirect. Some binding calls cover weakened binding; strength is not graded here.

The target of the assay is endogenous RIP3 (HT29) (human (endogenous in HT29)) (UniProt Q9Y572). As to the kind of experiment: co-IP; endogenous proteins, HT29 whole-cell extracts; cells untreated or stimulated with TNF alone or TSZ (TNF, Smac mimetic, z-VAD) for 8 h; immunoprecipitation with anti-RIP3 or anti-IgG, western blot.

Take “endogenous RIP1 (HT29) (from UniProt Q13546 1-671)”: the binding result was “binds”.
